Laboratory results reported in publication PMC9455228.
These are yes or no findings as the source states them, for the method shown. Binding seen in cells or lysates may run through a third protein. Some binding calls cover weakened binding; strength is not graded here. Values belong to the substance of their own block, whether it stands above or below them.

Protein sequences, listed by entry. Tags and fused reporters are not part of them.
UniProt P84022: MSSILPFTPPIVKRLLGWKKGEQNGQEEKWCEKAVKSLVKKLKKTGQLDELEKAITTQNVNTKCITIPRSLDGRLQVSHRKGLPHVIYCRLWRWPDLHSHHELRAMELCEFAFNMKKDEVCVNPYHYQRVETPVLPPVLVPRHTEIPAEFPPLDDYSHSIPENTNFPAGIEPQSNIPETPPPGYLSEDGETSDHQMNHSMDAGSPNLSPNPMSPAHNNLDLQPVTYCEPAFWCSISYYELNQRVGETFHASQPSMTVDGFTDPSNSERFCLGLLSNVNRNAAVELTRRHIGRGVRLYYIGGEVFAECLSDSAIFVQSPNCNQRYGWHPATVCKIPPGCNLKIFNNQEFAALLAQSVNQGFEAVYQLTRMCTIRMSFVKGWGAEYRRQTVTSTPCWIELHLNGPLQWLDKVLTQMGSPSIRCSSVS
UniProt P84025: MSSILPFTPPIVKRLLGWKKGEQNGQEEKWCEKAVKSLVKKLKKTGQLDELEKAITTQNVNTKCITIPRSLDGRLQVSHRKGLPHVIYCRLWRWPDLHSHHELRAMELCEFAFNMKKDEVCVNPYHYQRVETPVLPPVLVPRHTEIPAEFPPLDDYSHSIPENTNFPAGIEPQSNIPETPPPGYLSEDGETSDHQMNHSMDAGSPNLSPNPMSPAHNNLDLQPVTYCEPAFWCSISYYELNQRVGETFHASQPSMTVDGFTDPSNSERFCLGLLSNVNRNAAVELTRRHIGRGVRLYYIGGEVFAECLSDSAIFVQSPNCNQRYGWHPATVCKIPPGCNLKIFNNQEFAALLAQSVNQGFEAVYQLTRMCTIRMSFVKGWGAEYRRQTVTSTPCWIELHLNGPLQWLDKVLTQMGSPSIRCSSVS
UniProt P26447: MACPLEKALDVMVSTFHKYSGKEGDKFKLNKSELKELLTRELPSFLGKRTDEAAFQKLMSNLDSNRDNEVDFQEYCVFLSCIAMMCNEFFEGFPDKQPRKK
UniProt O70437: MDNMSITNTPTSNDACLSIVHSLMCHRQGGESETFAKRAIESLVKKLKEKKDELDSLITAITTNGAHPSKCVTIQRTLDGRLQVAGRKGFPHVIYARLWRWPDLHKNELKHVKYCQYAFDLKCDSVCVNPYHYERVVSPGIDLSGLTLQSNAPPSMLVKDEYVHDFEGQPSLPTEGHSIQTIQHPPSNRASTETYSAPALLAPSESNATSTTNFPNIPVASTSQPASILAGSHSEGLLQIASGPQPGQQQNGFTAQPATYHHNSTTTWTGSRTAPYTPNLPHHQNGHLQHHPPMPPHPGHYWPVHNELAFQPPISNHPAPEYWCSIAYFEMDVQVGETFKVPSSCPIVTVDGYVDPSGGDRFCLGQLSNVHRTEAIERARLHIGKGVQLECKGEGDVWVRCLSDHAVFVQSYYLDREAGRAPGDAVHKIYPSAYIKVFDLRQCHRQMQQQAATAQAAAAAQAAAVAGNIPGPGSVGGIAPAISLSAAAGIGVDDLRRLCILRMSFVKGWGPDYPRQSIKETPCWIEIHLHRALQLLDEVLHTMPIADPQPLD
UniProt P05942: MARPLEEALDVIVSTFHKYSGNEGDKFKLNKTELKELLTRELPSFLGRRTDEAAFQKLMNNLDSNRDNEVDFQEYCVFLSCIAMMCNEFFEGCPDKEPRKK

How the values were obtained:
FLAG-tagged Smad3 = FLAG-tagged Smad3 (UniProt P84022); test: co-IP; HEK293T co-transfected with GFP-S100A4 and FLAG-Smad3, lysed 48 h after transfection in IP lysis buffer (25 mM Tris-HCl pH 7.4, 150 mM NaCl, 1% NP-40, 5% glycerol); precipitated with anti-Flag, blotted with anti-GFP
[1] = target: endogenous Smad3 (NRK-49F cells) (rat (endogenous in NRK-49F)) (UniProt P84025); test: co-IP; NRK-49F cells (CON sgRNA or S100A4 sgRNA; pEGFP or GFP-S100A4) treated with TGF-β1 (2 ng/mL) for 1 h; extracts precipitated with anti-Smad3 or IgG, blotted with anti-Smad4
[2] = target: endogenous Smad3 (NRK-49F cells) (rat (endogenous in NRK-49F)) (UniProt P84025); test: co-IP; non-transfected NRK-49F lysate (25 mM Tris-HCl pH 7.4, 150 mM NaCl, 1% NP-40, 5% glycerol); precipitated with anti-Smad3 overnight at 4 °C, rabbit normal IgG as control; blotted for S100A4
GFP-tagged S100A4 = GFP-tagged S100A4 (UniProt P26447); test: co-IP; reciprocal: HEK293T transfected with GFP-S100A4 and FLAG-Smad3; lysates precipitated with anti-GFP, blotted with the indicated antibodies

binding (FLAG-tagged Smad3): binds
Substance: GFP-tagged S100A4 (from UniProt P26447 1-101)

binding [1]: binds
Substance: endogenous Smad4 (NRK-49F cells) (from UniProt O70437 1-552)

binding [2]: binds
Substance: endogenous S100A4 (NRK-49F cells) (from UniProt P05942 1-101)

binding (GFP-tagged S100A4): binds
Substance: FLAG-tagged Smad3 (from UniProt P84022 1-425)
